Assay results reported in US8987526B2, “Partially halogenated, hydroxylated fullerene and allergen adsorbent using the same” (Osaka University, priority 2010, dated 2015).
Some results were stated once for a whole list of compounds, not compound by compound.

Molecular target: T1, cedar pollen allergen (Cry j1) (Cryptomeria japonica, UniProt P18632)
T1 sequence (P18632 22-374): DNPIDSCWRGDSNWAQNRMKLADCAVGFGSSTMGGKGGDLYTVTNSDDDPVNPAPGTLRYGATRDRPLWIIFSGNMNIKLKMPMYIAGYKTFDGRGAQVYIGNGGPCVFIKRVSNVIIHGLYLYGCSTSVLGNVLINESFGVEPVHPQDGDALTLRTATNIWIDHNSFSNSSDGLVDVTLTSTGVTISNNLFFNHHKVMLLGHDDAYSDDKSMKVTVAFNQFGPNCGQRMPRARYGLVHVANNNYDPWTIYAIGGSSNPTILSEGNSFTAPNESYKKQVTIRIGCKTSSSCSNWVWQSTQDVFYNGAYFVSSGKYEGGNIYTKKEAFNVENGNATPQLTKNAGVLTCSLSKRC
Assay: Function test of the sample to cedar pollen allergen (Cry j1): allergen adsorption, supernatant measured by sandwich ELISA
Format: binding
Details: 1% (w/v) sample solution, 100 ng/mL Cry j1, 4° C., at 30 minutes
Procedure: A 1% (by weight/volume) sample solution was prepared from each of the compounds synthesized in Examples 1 to 5, an allergen (Cry j1) dissolved into a phosphate buffer solution was added into the sample solution so as to give 100 ng/mL of the concentration thereof, and then, they were mixed by using a vortex; thereafter, reaction was carried out with shaking the mixture at 4° C. The solution was recovered at the respective predetermined intervals ([…]); and a supernatant thereof after centrifugal separation was analyzed as to the allergen concentration (A) by using a sandwich ELISA method (Enzyme-Linked Immunosorbent Assay). […] Reduction rate (%)=(B−A)/B×100
Specific procedure of the sandwich ELISA method will now be described. Anti-Cry j1 antibody is immobilized in each well of a microplate; and after cleaning it, post coating thereof is conducted. After further cleaning, a sample solution or a standard allergen solution is added thereinto to carry out a primary reaction. After cleaning thereof, an anti-Cry j1 biotin-labeled antibody is added thereinto to carry out a secondary reaction. […] After termination of the reaction by adding dilute sulfuric acid, absorbance at the wavelength of 490 nm is measured by using a microplate reader. […]

Substance | allergen reduction rate
C60Cl15(OH)15.9H2O [Example 3] | ≥ 99%
C60Cl5 (OH)15.5H2O [Example 4] | ≥ 99%
